Results: article PMC6199744, “Development of Chemical Proteomics for the Folateome and Analysis of the Kinetoplastid Folateome” (ACS Infectious Diseases, 2018)
The source gives many values for each of these; only a part stands here.

Test system: L. major lysate proteins
Experiment: Multitargeted bead mixture chemoproteomics, single concentration competition, proteome-wide
Assay type: binding
Conditions: for fold change: vehicle control = 1

For `Nc1nc2c(c(=O)[nH]1)N(C=O)C(CNc1ccc(C(=O)N[C@@H](CCC(=O)O)C(=O)O)cc1)CN2` (stereo partly drawn) [LEU, leucovorin], the fold change (protein LMJF.18.1380 PYRUVATE DEHYDROGENASE E1 COMPONENT ALPHA SUBUNIT, PUTATIVE) was 1.06, the fold change (protein LMJF.18.1510 P-TYPE H -ATPASE, PUTATIVE) was 0.9 and the “fold change vs vehicle control” value (protein LMJF.19.0300 RNA BINDING PROTEIN, PUTATIVE) was 0.92. The fold change (protein LMJF.19.0750 HYPOTHETICAL PROTEIN, CONSERVED) was 1, the fold change (protein LMJF.19.0995 4-COUMARATE:COA LIGASE-LIKE PROTEIN) was 1.09 and the fold change (protein LMJF.19.1530 PEPT[…]-LIKE PROTEIN) was 1.14. The fold change (protein LMJF.20.0100 PHOSPH[…] C, GLYCOSOMAL) was 1.02, the “fold change vs vehicle control” value (protein LMJF.20.1180 CALPAIN-LIKE CYSTEINE PEPTIDASE, PUTATIVE,CYSTEINE PEPTIDASE, CLAN CA, FAMILY C2, PUTATIVE) was 0.98 and the fold change (protein LMJF.21.0540 LA RNA BINDING PROTEIN, PUTATIVE) was 1.07. The “fold change vs vehicle control” value (protein LMJF.21.1060 40S RIBOSOMAL PROTEIN S23, PUTATIVE) was 1.02, the fold change (protein LMJF.21.1090 T-COMPLEX PROTEIN 1, DELTA SUBUNIT, PUTATIVE) was 0.98 and the “fold change vs vehicle control” value (protein LMJF.21.1552 RNA HELICASE, PUTATIVE) was 1. It also gave a fold change (protein LMJF.21.1555 HY[…], CONSERVED) of 0.93, a fold change (protein LMJF.21.1580 HY[…], UNKNOWN FUNCTION) of 1.08 and a fold change (protein LMJF.21.1700 […] 2 SUBUNIT, PUTATIVE) of 0.98. It also gave a fold change (protein LMJF.21.1710 […] OXIDASE SUBUNIT VI, PUTATIVE) of 1.07, a fold change (protein LMJF.22.0270 HY[…], CONSERVED) of 0.91 and a fold change (protein LMJF.22.0420 40S RIBOSOMAL PROTEIN S15, PUTATIVE) of 0.86. For the same compound, the fold change (protein LMJF.22.1540 ALANYL-TRNA SYNTHETASE, PUTATIVE) was 0.96, the fold change (protein LMJF.22.1630 CCR4 […], PUTATIVE) was 0.84 and the fold change (protein LMJF.23.0110 GDP-MANNOSE PYROPHOSPHORYLASE) was 1.02. For the same compound, the fold change (protein LMJF.23.0200 ENDORIBONUCLEASE L-PSP (PB5), PUTATIVE) was 0.99, the fold change (protein LMJF.23.0640 HY[…], CONSERVED) was 1.11 and the fold change (protein LMJF.23.0810 ACTIN I[…]-LIKE PROTEIN) was 0.93. For the same compound, the “fold change vs vehicle control” value (protein LMJF.24.0280 DYNEIN INTERMEDIATE-CHAIN-LIKE PROTEIN) was 1.03, the fold change (protein LMJF.24.0770 MALIC ENZYME, PUTATIVE) was 0.9 and the fold change (protein LMJF.24.1840 LYSOPHOSPHOLIPASE, PUTATIVE) was 1.11. The fold change (protein LMJF.25.0120 ELECTRON TRANSFER FLAVOPROTEIN, PUTATIVE) was 0.97, the fold change (protein LMJF.25.1540 HYPOTHETICAL PROTEIN, CONSERVED (mitochondrial RNA binding complex 1 subunit, putative)) was 0.9 and the fold change (protein LMJF.25.1710 PYRUVATE DEHYDROGENASE E1 BETA SUBUNIT, PUTATIVE) was 1.04. For the same compound, the fold change (protein LMJF.26.0830 […], PUTATIVE,ASPARTATE--AMMONIA LIGASE, PUTATIVE) was 1.24, the fold change (protein LMJF.26.1960 HYPOTHETICAL PROTEIN, CONSERVED) was 0.94 and the fold change (protein LMJF.26.2000 HYPOTHETICAL PROTEIN, CONSERVED (methyltransferase domain containing protein, putative)) was 1. For the same compound, the fold change (protein LMJF.27.0130 HYPOTHETICAL PROTEIN, CONSERVED) was 0.83, the fold change (protein LMJF.27.0880 2-OXOGLUTARATE DEHYDROGENASE SUBUNIT, PUTATIVE) was 0.9 and the fold change (protein LMJF.27.0930 ISOVALERYL-COA DEHYDROGENASE, PUTATIVE) was 1.07. The “fold change vs vehicle control” value (protein LMJF.27.1300 HYPOTHETICAL PROTEIN, CONSERVED) was 0.99, the fold change (protein LMJF.27.1310 ARGINYL-TRNA SYNTHETASE, PUTATIVE) was 1.08 and the fold change (protein LMJF.27.2030 BRANCHED-CHAIN AMINO ACID AMINOTRANSFERASE, PUTATIVE) was 0.96. The fold change (protein LMJF.27.2400 HEAT SHOCK PROTEIN DNAJ, PUTATIVE) was 1.06, the fold change (protein LMJF.28.0980 P27 PROTEIN, PUTATIVE) was 1.03 and the “fold change vs vehicle control” value (protein LMJF.28.2260 GLYCOSOMAL MEMBRANE PROTEIN, PUTATIVE) was 1. For the same compound, the fold change (protein LMJF.28.2420 2-OXOGLUTARATE DEHYDROGENASE, E2 COMPONENT, DIHYDROLIPOAMIDE SUCCINYLTRANSFERASE, PUTATIVE) was 0.96, the fold change (protein LMJF.28.2510 ACYL-COA DEHYDROGENASE, PUTATIVE) was 1.04 and the fold change (protein LMJF.28.2680 CYTOCHROME OXIDASE ASSEMBLY PROTEIN-LIKE PROTEIN) was 0.91. For the same compound, the fold change (protein LMJF.28.2750 ACTIVATED PROTEIN KINASE C RECEPTOR (LACK)) was 1.13, the fold change (protein LMJF.29.0020 TRANSCRIPTION FACTOR-LIKE PROTEIN) was 1 and the fold change (protein LMJF.29.0820 CYSTEINE PEPTIDASE C (CPC)) was 1.15. The fold change (protein LMJF.29.2240 AMINOPEPTIDASE, PUTATIVE,METALLO-PEPTIDASE, CLAN MA(E), FAMILY M1) was 0.9, the “fold change vs vehicle control” value (protein LMJF.30.0120 […] SYNTHASE) was 1.01 and the fold change (protein LMJF.30.0460 ASPARTYL-TRNA SYNTHETASE, PUTATIVE) was 1.03. It also gave a fold change (protein LMJF.30.0630 HISTIDYL-TRNA SYNTHETASE, PUTATIVE) of 1.11, a fold change (protein LMJF.30.0750 4-METHYL-5(BETA-HYDROXYETHYL)-THIAZOLE MON[…] PROTEIN, PUTATIVE) of 1.03 and a fold change (protein LMJF.30.2330 HY[…], UNKNOWN FUNCTION) of 1.08. For the same compound, the fold change (protein LMJF.30.2350 SPHINGOSINE 1-PHOSPHATE LYASE) was 1.06, the fold change (protein LMJF.30.2550 HEAT SHOCK 70-RELATED PROTEIN 1, MIT[…], PUTATIVE) was 1.09 and the fold change (protein LMJF.30.2970 GLYCERALDEHYDE 3-PHOSPHATE DEHYDROGENASE, GLYCOSOMAL) was 0.99. It also gave a fold change (protein LMJF.30.3040 EUKARYOTIC TRANSLATION INITIATION FACTOR 3 SUBUNIT 7-LIKE PROTEIN) of 0.99, a fold change (protein LMJF.30.3130 VALYL-TRNA SYNTHETASE, PUTATIVE) of 1 and a fold change (protein LMJF.30.3530 HYPOTHETICAL PROTEIN, CONSERVED) of 0.99. It also gave a fold change (protein LMJF.30.3600 ATP SYNTHASE, EPSILON CHAIN, PUTATIVE) of 0.93, a fold change (protein LMJF.31.0440 CYTOSKELETON-[…] CAP5 5, PUTATIVE) of 1.02 and a fold change (protein LMJF.31.1110 HY[…], CONSERVED (emp24/gp25L/p24 family/GOLD, putative)) of 1.04. The fold change (protein LMJF.31.2280 ADP-RI[…], PUTATIVE) was 1.12, the fold change (protein LMJF.31.2790 ADP-RI[…], PUTATIVE) was 0.97 and the fold change (protein LMJF.32.0050 PROTEIN TRANSPORT PROTEIN SEC13, PUTATIVE) was 0.94.
